From PubChem BioAssay AID493014 (National Center for Advancing Translational Sciences (NCATS), 2011)
The campaign covered roughly 340,000 compounds. About 170 (0.05%) were called active. Inconclusive means that the source gave no clear call. Such entries were picked first, then a sample of the others. The call rests on the fitted dose curve; in most records, active means well fitted inhibition curve with a large enough effect in the signal ratio, with a control signal flat (not every such curve was filed as active); inconclusive means small, poorly fitted or top-dose-only effect, or effect the other way, or a change in a side signal; inactive means flat fitted curve, though single readings scatter; the % refers to the signal ratio. Potencies beside an inconclusive call are fits to weak or partial responses and may not hold up.

Test: qHTS Assay to Find Inhibitors of Chronic Active B-Cell Receptor Signaling;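 on activity change, negative = inhibition: plate controls were basal doxycycline-induced cells for no effect and cells given 10 µM MG132 for full effect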
Details: ABC-DLBCL IkBa-CBG/CBR reporter, luminescence ratio (green luciferase fused to IkBa over red control in TMD8 lymphoma cells), 4 h; activity change, negative = inhibition: at 46.1 µM (top of the series) unless noted
Outline: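 Doxycycline induced both beetle luciferases in TMD8 lymphoma cells; IKK-driven degradation limits the IkappaBalpha-fused green signal, while red luminescence normalises for cell number and nonspecific effects. Compounds tested up to 46 uM, 4 hrs.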
Potency means the concentration at half of the fitted maximal effect.

| SMILES | activity change, negative = inhibition | Potency |
| --- | --- | --- |
| COc1ccc(C(=O)NCc2ccc3c(c2)CCN3C(=O)c2cccc(C)c2)cc1OC | inconclusive: 9.34% | – |
| O=C(NC(=S)Nc1ccc(N2CCN(C(=O)c3ccccc3)CC2)cc1)c1cccs1 | inconclusive: -6.82% | – |
| O=C(c1cccs1)N(Cc1ccc(Cl)cc1)C1CCS(=O)(=O)C1 (stereo unspecified) | inactive | – |
| N/C(=N\N=C\c1ccc(O)c(O)c1)c1nonc1N | – | inconclusive: 35.5 µM [falling, single point] |
| CCCOc1ccc(C2NC(=O)NC(c3ccccc3)=C2C(C)=O)cc1OCC (stereo unspecified) | inconclusive: 21% | – |
| O=C(COC(=O)c1ccc(F)c(S(=O)(=O)N2CCOCC2)c1)NCc1ccccc1 | inconclusive: -0.511% | – |
| Nc1[nH]c(N=NC(=O)c2ccccc2O)c2ccccc12 | – | inconclusive: 5.8 µM [falling, single point] |
| O=C(Nc1ccncc1)c1ccccc1F | inconclusive: -25.6% | – |
| CC1CCCN(C(=O)N2c3ccccc3Sc3ccccc32)C1 (stereo unspecified) | – | inconclusive: 32.6 µM [rising, single point] |
| CN(C)c1ccc(C(=O)Nc2nc3c(s2)CCCC3)cc1 | – | inconclusive: 8.2 µM [falling, partial curve] |
| Cc1nn(-c2ccccc2)c(C)c1C(=O)NCc1ccc(S(N)(=O)=O)cc1 | – | inconclusive: 28.2 µM [falling, partial curve, poor fit] |
| CCCCCNC(=O)c1cccc(S(=O)(=O)N2CC3(C)CC2CC(C)(C)C3)c1 (stereo unspecified) | inconclusive: -3.31% | – |
| CC(=O)Oc1ccc(N2C(=O)C3C4C=CC(CO)(O4)C3C2=O)cc1 (stereo unspecified) | – | inconclusive: 8.2 µM [rising, partial curve, poor fit] |
| O=C(COc1ccccc1F)Nc1ccc2c(c1)OCCO2 | – | inconclusive: 35.5 µM [falling, single point] |
| COC(=O)C1=C(C)NC(=O)/C1=C\c1cc(C)n(-c2cccc(C)c2)c1C | inactive | – |
| CCOCC(O)CNC(=O)c1ccc(OC2CCN(C(=O)c3cccnc3)CC2)cc1 (stereo unspecified) | inconclusive: 8.53% | – |
| CC(C)(C)NS(=O)(=O)CC12CCC(CC1=O)C2(C)C (stereo unspecified) | – | inconclusive: 1.16 µM [falling, partial curve, poor fit] |
| O=C(NCc1ccco1)c1cc(-c2ccccc2)on1 | – | inconclusive: 23.1 µM [falling, partial curve] |
| CCCC(=O)NNC(=O)CCC(=O)Nc1ccccc1Cl | inconclusive: 6.75% | – |
| CN1c2ccc(Cl)cc2C(=O)NC1C1CC=CCC1 (stereo unspecified) | inconclusive: 7.12% | – |
| CC(C)CN(C(=O)COC(=O)C1c2ccccc2Oc2ccccc21)C1CCS(=O)(=O)C1 (stereo unspecified) | – | inconclusive: 0.0651 µM [rising, full curve, poor fit] |
| O=C(NCc1ccccc1F)C1CCCN1C(=O)Nc1cccc(F)c1 (stereo unspecified) | inconclusive: 8.66% | – |
| CCN(CC)c1ccc(NC(=O)CN2CCN(CC(=O)Nc3ccccc3F)CC2)cc1 | inconclusive: -17.4% | – |
| O=C(CSCc1ccccc1Cl)NCc1ccc(Cl)c(Cl)c1 | inconclusive: 13.7% | – |
| CC(CN1CCN(C)CC1)OC(=O)c1cccc(F)c1 (stereo unspecified) | inactive | – |
| CCc1nnc(NC(=O)c2ccc(COc3ccc(C)cc3)o2)s1 | inactive | – |

3 of these compounds, set out differently:
N/C(=N\N=C\c1ccc(O)c(O)c1)c1nonc1N
  Potency: inconclusive: 35.5 µM [falling, single point]
CN(C)c1ccc(C(=O)Nc2nc3c(s2)CCCC3)cc1
  Potency: inconclusive: 8.2 µM [falling, partial curve]
O=C(COc1ccccc1F)Nc1ccc2c(c1)OCCO2
  Potency: inconclusive: 35.5 µM [falling, single point]

Additional records follow.

| SMILES | activity change, negative = inhibition | Potency |
| --- | --- | --- |
| COc1ccc(OCC(O)Cn2c(Br)nc3c2c(=O)[nH]c(=O)n3C)cc1 (stereo unspecified) | – | inconclusive: 29.1 µM [falling, single point] |
| C=CCNC(=S)NNC(=O)c1ccc(OCC(C)C)cc1 | inconclusive: -4.38% | – |
| CCOc1cc(/C=N/NC(=O)c2cccnc2)ccc1OC(=O)c1ccco1 | inconclusive: -26.5% | – |
| COc1ccc(CCN2CN(S(=O)(=O)c3ccc(C)cc3)c3nc4ccccc4nc32)cc1OC | inactive | – |
| COc1ccc(NS(=O)(=O)c2ccc(NC(=S)NC(=O)CC(C)C)cc2)cc1 | inconclusive: -3.35% | – |
| CCOc1ccc(NC(=O)CCC(=O)NNC(=O)COc2ccc(C)cc2Br)cc1 | inactive | – |
| O=C(COC(=O)Cc1ccccc1F)Nc1ccc2c(c1)OCO2 | inactive | – |
| O=C(Nc1ccc(SC(F)F)cc1)C1=COCCO1 | – | inconclusive: 29.1 µM [falling, single point] |
| CCC(Sc1nc2ccccc2c2nc3ccccc3n12)C(=O)NCc1ccco1 (stereo unspecified) | – | inconclusive: 1.64 µM [rising, full curve, poor fit] |
| COCCn1nnnc1CN(Cc1ccco1)Cc1cc2cc3c(cc2[nH]c1=O)OCO3 | inactive | – |
| CCOC(=O)C1(CC2CC2)CCN(Cc2cnc(-c3ccc(OC)cc3)nc2)CC1 | – | inconclusive: 12.6 µM [falling, partial curve, poor fit] |
| Cc1ccccc1/C=N/NC(=O)Cc1ccc(Cl)cc1 | inconclusive: 5.79% | – |
| CC(=O)N1CCN(c2nc3c(C)ccc(Cl)c3s2)CC1 | inconclusive: -8.73% | – |
| Cc1ccc2nc(N3C(=O)C(O)=C(C(=O)c4ccc(C)o4)C3c3cccc(O)c3)sc2c1 (stereo unspecified) | inconclusive: -7.24% | – |
| O=C(COC(=O)/C=C/c1ccc(OC(F)F)cc1)NC1CCCC1 | inactive | – |
| Nc1ccc(/C=C/c2ccc3ncccc3c2)cc1 | – | inconclusive: 17.8 µM [falling, partial curve, poor fit] |
| O=C(Nc1ccccc1)O/N=C(\c1ccccc1)c1ccccn1 | inactive | – |
| Cc1cc(C)cc(C(=O)Nc2nnc(SCC(=O)NCC3CCCO3)s2)c1 (stereo unspecified) | inactive | – |
| O=C1C=C(c2ccccc2)C(=O)N1Nc1ccccc1 | inconclusive: -21.7% | – |
| O=C(NCC(=O)N1CCN(c2ccccc2O)CC1)c1cccs1 | – | inconclusive: 20.6 µM [falling, single point] |
| NNC(=O)c1ccc(Oc2cc(Cl)cc(Cl)c2)o1 | – | inconclusive: 7.08 µM [falling, partial curve] |
| CCC(C)Sc1nc2c(cnn2-c2ccc(C)c(C)c2)c(=O)[nH]1 (stereo unspecified) | inconclusive: 8.79% | – |
| Cc1nn(-c2ccccc2)c(C)c1CCC(=O)O | inconclusive: -12.2% | – |
| CCOC(=O)C1CCCN(C(=O)CCc2nc3sc4c(c3c(=O)[nH]2)CCCC4)C1 (stereo unspecified) | inconclusive: 0.892% | – |
| COC(=O)c1ccccc1S(=O)(=O)Oc1ccc(-c2ccc(C(=O)O)cc2)cc1 | – | inconclusive: 17.8 µM [falling, partial curve, poor fit] |
